Measured values taken from the supplement of paper PMC7125110.
± gives the standard error. Many entries were measured with a wide error.

B1: glmS ribozyme (parent)
chain: AUAAAAGCGCCAGAACUACAGAAAUGUAGUUGACGAGGAGGAGGUUUAUCGAAUUUUCGGCGGAUGCCUCCAAA

Variants of: B1
Test: self-cleavage kobs at 2500 uM GlcN6P; higher = faster cleavage; RNA array
Conditions: with glucosamine-6-phosphate
How it was run: (§1)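 Tiles of sequenced MiSeq chips were imaged over ~14 h at 37 °C. On them, barcoded ribozyme variants had been transcribed in situ by E. coli RNA polymerase and were tracked via a hybridised Cy3 probe while glucosamine-6-phosphate (40 μM to 10 mM) in HEPES/KCl/Mg(OAc)2 buffer flowed in. Per-tile medians, normalised to baseline and to non-cleaving reference variants, were fit to one- or two-exponential decays for kobs, and weighted Michaelis–Menten fits gave kcat and KM.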

| Variant | self-cleavage kobs at 2500 uM GlcN6P [s⁻¹] |
| --- | --- |
| U55C C58U | 1.11e-05 ± 7.4e-06 |
| G29U C67U U69A | 5.35e-05 ± 2.8e-05 |
| G41U U56C | 1.87e-05 ± 1.1e-05 |
| G29C G66C | 3.71e-05 ± 1.9e-05 |
| U54G U57G | 2.39e-05 ± 1.8e-05 |
| G32A U57A C70G | 7.54e-05 ± 6.3e-05 |
| A39C A42C U54A | 3.63e-05 ± 2.5e-05 |
| U31G A64C | 2.56e-05 ± 1.3e-05 |
| A33U G38A A48G G66U U69G | 3.53e-05 ± 2.2e-05 |
| U30A A33C | 2.14e-05 ± 1.3e-05 |
| A14G G60C C70U | 2.27e-05 ± 2e-05 |
| A6U C67A C68A | 2.31e-05 ± 2e-05 |
| A48U A64U C70U | 3.63e-05 ± 2.1e-05 |
| U57A C68A C71G | 3.69e-05 ± 2.8e-05 |
| G37U C70G | 2.67e-05 ± 1.5e-05 |
| G29U A64C | 1.77e-05 ± 1.3e-05 |
| A48G U65A C68A | 4.17e-05 ± 2.4e-05 |
| C58U C61G C67U | 4.74e-05 ± 2.7e-05 |
| A12G G13U A39U | 1.47e-05 ± 1.5e-05 |

| Variant | self-cleavage kobs at 2500 uM GlcN6P [s⁻¹] |
| --- | --- |
| A15U G40U G66C | 2.83e-05 ± 1.7e-05 |
| U30C A52G U55A | 4.1e-05 ± 3.6e-05 |
| A52G A53U U56C | 3.28e-05 ± 1.8e-05 |
| A12C A52U C70A | 3.58e-05 ± 1.9e-05 |
| C16U A48U C58G C70G | 3.97e-05 ± 2.1e-05 |
| A39U G41C | 1.47e-05 ± 1.3e-05 |
| U46A U65G G66U C71G | 3.91e-05 ± 2.4e-05 |
| C10A G51U C68G | 6.99e-05 ± 5.1e-05 |
| A18C | 0.0756 ± 0.051 |
| A33C C71U | 2.83e-05 ± 1.6e-05 |
| G13U A39G C68U | 0.000165 ± 8.4e-05 |
| A15C G35U G66U C68G C70G | 5.27e-05 ± 3.1e-05 |
| A33U C50U C68U | 3.31e-05 ± 3.3e-05 |
| U46C C68G | 4.33e-05 ± 3.4e-05 |
| C11G U69G C71U | 2.55e-05 ± 2.1e-05 |
| A12G G13U U49G C58U U69G C71G | 4.63e-05 ± 2.9e-05 |
| A15G G40U U65C | 3.32e-05 ± 2.1e-05 |
| A15U G41C C71U | 2.88e-05 ± 1.8e-05 |
| A14G U31G C50G | 2.5e-05 ± 2.1e-05 |

| Variant | self-cleavage kobs at 2500 uM GlcN6P [s⁻¹] |
| --- | --- |
| A12U U56G | 0.0376 ± 0.022 |
| A14G C50G G51C C61U U69A | 3.87e-05 ± 2.9e-05 |
| A48C C50U U55A C67G C68G | 5.61e-05 ± 2.8e-05 |
| U46G C68G C71G | 4.2e-05 ± 2.2e-05 |
| C10A G51A C61G A64C | 5.09e-05 ± 2.9e-05 |
| G29A C58U C67G | 3.32e-05 ± 2.5e-05 |
| A33U C50U C61A C68G C70U | 4.56e-05 ± 2.8e-05 |
| C16G A48U C50G C70A | 3.06e-05 ± 2.2e-05 |
| A64G C70G | 4.22e-05 ± 3.2e-05 |
| C16A A42G C71G | 3.16e-05 ± 1.9e-05 |
| C11U A12C A36U C50G G63C G66A | 3.11e-05 ± 2.9e-05 |
| C50A C67U C70G | 0.00105 ± 0.00059 |
| A6C C67U | 2.14e-05 ± 1.8e-05 |
| A15U C50U | 2.56e-05 ± 1.6e-05 |
| U30C G41A | 1.39e-05 ± 1.3e-05 |
| A14G U56C G59U | 2.17e-05 ± 1.2e-05 |
| A6U U31C | 2.61e-05 ± 1.7e-05 |
| C11U G29U G40A | 1.86e-05 ± 1.8e-05 |

In another format: entries from further up
Variant | self-cleavage kobs at 2500 uM GlcN6P [s⁻¹]
C50A C67U C70G | 0.00105 ± 0.00059
A6C C67U | 2.14e-05 ± 1.8e-05

Variants of: B1
Test: self-cleavage kobs at 10000 uM GlcN6P; higher = faster cleavage; RNA array
Conditions: with glucosamine-6-phosphate
How it was run: as §1

| Variant | self-cleavage kobs at 10000 uM GlcN6P [s⁻¹] |
| --- | --- |
| U31G A64C | 1.75e-05 ± 9.4e-06 |
| G32A A52U | 1.82e-05 ± 1.1e-05 |
| G9A C58G C67G | 4.53e-05 ± 3.2e-05 |
| C10G G35U C67U C70A | 0.000525 ± 0.00027 |
| G29U A64C | 1.31e-05 ± 1.2e-05 |
| C11A U30C C67G | 2.67e-05 ± 2.2e-05 |
| A15U G35U C67G | 2.38e-05 ± 2.2e-05 |
| A39G C58G C71A | 2.67e-05 ± 2e-05 |
| G32A U65C | 2.43e-05 ± 1.6e-05 |
| A12U G13A G29A U45G | 2.47e-05 ± 2.4e-05 |
| C10A C50G U65G | 2.4e-05 ± 1.8e-05 |
| A12U G44C C68U | 1.57e-05 ± 1.3e-05 |
| A12G U54C U69G | 2.65e-05 ± 1.6e-05 |
| A12C A14C G66C | 3.38e-05 ± 2.3e-05 |
| G32C A33U A48U U69G | 3.22e-05 ± 2.3e-05 |
| A12G G13U U49G C58U U69G C71G | 1.93e-05 ± 1.5e-05 |
| G32A A42U | 2.08e-05 ± 1.6e-05 |
| C11A G37A G59A | 2.43e-05 ± 2e-05 |
| U46G C68G C71G | 3.14e-05 ± 1.8e-05 |
| A15C C50G G62U | 2.49e-05 ± 1.8e-05 |
| A15U C50U | 2.1e-05 ± 1.1e-05 |

Variants of: B1
Test: self-cleavage kobs at 160 uM GlcN6P; higher = faster cleavage; RNA array
Conditions: with glucosamine-6-phosphate
How it was run: as §1

| Variant | self-cleavage kobs at 160 uM GlcN6P [s⁻¹] |
| --- | --- |
| C67A C70A | 2.89e-05 ± 1.5e-05 |
| C58U C61G C67U | 3.82e-05 ± 2.5e-05 |
| G32U U46G C50G | 5.56e-05 ± 3.2e-05 |
| A39G C58G C71A | 2.81e-05 ± 2.4e-05 |
| A33U G59U U69G | 3.44e-05 ± 1.8e-05 |
| G32A U46G | 4.68e-05 ± 2.5e-05 |
| G41A U65A | 2.55e-05 ± 1.4e-05 |
| C67A C68A | 2.57e-05 ± 2e-05 |
| A39G C67G C68G | 3.13e-05 ± 1.7e-05 |
| A33C C50G U54A | 0.00025 ± 0.00013 |
| G37A U69C | 3.99e-05 ± 2.4e-05 |

3 entries drawn at random from those above:

| Variant | self-cleavage kobs at 160 uM GlcN6P [s⁻¹] |
| --- | --- |
| A39G C58G C71A | 2.81e-05 ± 2.4e-05 |
| A39G C67G C68G | 3.13e-05 ± 1.7e-05 |
| A33C C50G U54A | 0.00025 ± 0.00013 |
